Experimental data as given in patent US9017737B2, “Use of cannabinoids in combination with an anti-psychotic medicament” (priority 2008, dated 2015).
At least one compound was matched to its structure with a doubt left.

Tested on: 3T3L1 cells
Assay: Induction of adipocyte differentiation (Oil Red O staining)
Assay type: cell-based
Details: treated for 8 days

Compound: CN(CCOc1ccc(CC2SC(=O)NC2=O)cc1)c1ccccn1 (stereo not shown) [rosiglitazone, reference compound]
- Differentiation of 3T3 L1 cells to adipocytes (fat droplet accumulation, Oil Red O): induced differentiation
